# Counter-ions that a name gives are not always drawn. Some of the results follow. This data set is noisy: repeats of one test often differ as much as different tests do.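 In a drug-repurposing library screen, luminescence reads luciferase driven by eight TEAD-binding elements, stably integrated into human kidney-derived cells. Compounds scoring over five robust Z scores above the plate mean are called hits.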
# Tested on: HEK293A TEAD-LUC reporter
# Assay: TEAD-luciferase reporter activity (YAP activation), robust Z score vs plate; higher = stronger YAP/TEAD activation
# Conditions: 24 h
Compound,TEAD-luciferase reporter activity (compound concentration: 200 nM),TEAD-luciferase reporter activity (compound concentration: 2 uM),TEAD-luciferase reporter activity (compound concentration: 10 uM)
CC(C)(N)C(=O)N[C@H](COCc1ccccc1)c1nnnn1CCOC(=O)NCCCCO,inactive: 0.0779,inactive: 0.528,inactive: 1.29
c1ccc(-c2nc(N3CCNCC3)cc3ccccc23)cc1 [perafensine],inactive: 0.505,inactive: -0.213,inactive: -0.537
COc1c(N2CCC(=NO)CC2)c(F)cc2c(=O)c(C(=O)O)cn(C3CC3)c12,inactive: 0.142,inactive: -0.941,inactive: 1.29
Cc1cccc(C(=O)N2CCCC2C(C)(C)O)c1F (centres undefined),inactive: -1.11,inactive: 2.15,inactive: 0.335
Cc1cc(NCCN2CCN(C(c3ccccc3)c3ccccc3)CC2)c([N+](=O)[O-])c(C)n1 [Elbanizine],inactive: 3.92,inactive: 0.861,inactive: 1.27
CO[C@H]1C(n2cnc3c(=O)[nH]c(N)nc32)C[C@@H]1CO (some centres undefined),inactive: 0.73,inactive: 0.00693,inactive: 3.96
COC(=O)c1ccc(C(C(C)=O)C(C)=O)cc1C(=O)OC [Pharmaprojects No. 1912],inactive: -0.538,inactive: -1.75,inactive: 1.72
O=[N+]([O-])c1cn2c(n1)OC[C@@H](OCc1ccc(OC(F)(F)F)cc1)C2 [Pretomanid],inactive: 0.247,inactive: -0.912,inactive: -2.13
CC1(C)CC(NC(=O)CCN2C(=O)c3ccccc3S2(=O)=O)c2ccccc2O1 (centres undefined),inactive: -0.64,inactive: 1.36,inactive: -0.573
O=c1[nH]c(=O)n([C@H]2C[C@H](O)[C@@H](CO)O2)cc1/C=C/Br [brivudine eyedrop],,inactive: -1.74,
"O=c1[nH]c(=O)n([C@H]2C[C@H](O)[C@@H](CO)O2)cc1/C=C/Br [brivudine eyedrop, Menarini]",inactive: -0.789,,inactive: -2.09
CC(C)CC(CN[C@@H](CC(C)C)C(N)=O)NC(=O)[C@H](Cc1cnc[nH]1)NC(=O)CNC(=O)[C@@H](NC(=O)C(C)NC(=O)[C@H](Cc1c[nH]c2ccccc12)NC(=O)[C@H](CCC(N)=O)NC(=O)[C@H]1Cc2c([nH]c3ccccc23)CN1)C(C)C (some centres undefined),inactive: 0.835,inactive: -0.348,inactive: 1.75
NCc1ccc(S(=O)(=O)c2ccc(N)cc2)cc1,inactive: -0.612,inactive: 3.43,inactive: 1.99
CNC(=O)CN1CCC(Oc2cc3c(Nc4cccc(Cl)c4F)ncnc3cc2OC)CC1 [Sapitinib],inactive: -1.06,inactive: 1.44,inactive: -2.82
CC(=O)NC[C@H]1CN(c2ccc(C3=NOC(C#N)C3)c(F)c2)C(=O)O1 (some centres undefined),active: 8.55,inactive: 0.0985,inactive: 1.16
O=C(O)CCN1CCC(=C2c3ccc(F)cc3OCc3cccnc32)CC1,inactive: 0.641,inactive: -0.71,inactive: 1.18
Cc1c(C)c2c(c(C)c1O)CC[C@@](C)(CCC[C@H](C)CCC[C@H](C)CCCC(C)C)O2 [Vitamin E],inactive: -1.23,inactive: 0.417,inactive: 3.45
CC(CC1CCCCC1)NCCC(c1ccccc1)c1ccccc1 (centres undefined) [Droprenilamine],inactive: -1.66,inactive: 0.348,inactive: -0.887
CCOCc1cc(OC)c(-c2ccc(C[C@H](NC(=O)c3c(F)cccc3F)C(=O)O)cc2)c(OC)c1 [Firategrast],inactive: 0.0917,inactive: -0.133,inactive: -0.125
O=c1[nH]ncc(NCC(O)COc2cccc3ccccc23)c1Cl (centres undefined),inactive: -0.474,inactive: 0.629,inactive: -0.342
CCCN1CCCC12Cc1ccccc1CN(C(=O)CCNC(C)=O)C2 (centres undefined),inactive: 0.797,,inactive: 1.62
CSc1nc(C)c(Cc2ccccc2)c(=O)[nH]1,inactive: -0.139,inactive: -0.738,inactive: 0.859
CN1CCC2(O)Oc3c(ccc4ccccc34)CC2C1 (centres undefined),inactive: -1.97,inactive: 0.675,inactive: 0.359
CN1CCC(=C2c3ccccc3CCc3cccnc32)CC1 [Azatadine maleate],inactive: 0.368,inactive: 0.608,inactive: 4.63
CCCCCCCOC(=O)Cc1c(C)n(C(=O)c2ccc(Cl)cc2)c2ccc(OC)cc12 [Indomethacin heptyl ester],inactive: -0.109,inactive: 0.312,inactive: 1.49
CCCc1c(OCCCOc2ccc(C(=O)NC)c(OC)c2CC2CC2)ccc2c1OC(CCC(=O)O)CC2 (centres undefined),inactive: 1.06,inactive: -1.55,inactive: 0.113
CCCC(=O)N1CCCN(c2nc(N)c3cc(OC)c(OC)cc3n2)CC1 [bunazosin ER],inactive: 1.23,inactive: -2.15,inactive: 0.494
C#CCN(C)Cc1ccccc1 [Pargyline hydrochloride],inactive: -0.272,inactive: 3.31,inactive: 0.733

# Limited to TEAD-luciferase reporter activity (compound concentration: 10 uM), for some of the entries so far:
Compound	TEAD-luciferase reporter activity (compound concentration: 10 uM)
O=c1[nH]c(=O)n([C@H]2C[C@H](O)[C@@H](CO)O2)cc1/C=C/Br [brivudine eyedrop, Menarini]	inactive: -2.09
CC(C)CC(CN[C@@H](CC(C)C)C(N)=O)NC(=O)[C@H](Cc1cnc[nH]1)NC(=O)CNC(=O)[C@@H](NC(=O)C(C)NC(=O)[C@H](Cc1c[nH]c2ccccc12)NC(=O)[C@H](CCC(N)=O)NC(=O)[C@H]1Cc2c([nH]c3ccccc23)CN1)C(C)C (some centres undefined)	inactive: 1.75
NCc1ccc(S(=O)(=O)c2ccc(N)cc2)cc1	inactive: 1.99
CNC(=O)CN1CCC(Oc2cc3c(Nc4cccc(Cl)c4F)ncnc3cc2OC)CC1 [Sapitinib]	inactive: -2.82

# More entries follow:

Compound,TEAD-luciferase reporter activity (compound concentration: 200 nM),TEAD-luciferase reporter activity (compound concentration: 2 uM),TEAD-luciferase reporter activity (compound concentration: 10 uM)
CCCC(CCC)C(=O)NCC(=O)NCCCCCCNC(=O)n1cc(F)c(=O)[nH]c1=O,inactive: 0.0794,inactive: -0.0633,inactive: 0.806
Cc1cc(F)c(C(=O)Nc2cccc(-c3nncn3C(C)C)n2)cc1-n1cnc(C2CC2)c1,inactive: -0.118,inactive: -0.917,inactive: 1.83
COc1ccc(C(=O)N2CCOc3ccccc32)cc1Cl,inactive: 0.854,inactive: -0.544,inactive: -1.23
CC(C)CNC(=N)Nc1cccc(NC(=O)Nc2ccc(Cl)cc2)c1,inactive: -0.797,inactive: -0.0306,inactive: 0.602
COCCN(C)Cc1ccc2nc3sc(C(=O)N(C)C4CCCCC4)cn3c2c1,inactive: 0.108,inactive: 1.58,inactive: 1.81
CC(C)N(CCC(c1ccccc1)c1ccccc1)C(C)C,inactive: -0.514,inactive: 2.27,inactive: 0.752
CC(C)(C)[C@H](NC(=O)[C@H](CC1CCCC1)CN(O)C=O)C(=O)N1CCN(Cc2ccc3c(c2)OCO3)CC1,inactive: 1.62,inactive: -0.32,inactive: -0.245
CCOC(=O)OC(C)OC1=C(C(=O)Nc2ccccn2)N(C)S(=O)(=O)c2ccccc21 (centres undefined),inactive: -0.0627,,inactive: 0.701
CCOC(=O)OC(C)OC1=C(C(=O)Nc2ccccn2)N(C)S(=O)(=O)c2ccccc21 (centres undefined) [ampiroxicam],,inactive: 0.524,
CCCCCCCCCCCCCCCCOCCCOP(=O)(O)CO[C@H](C)Cn1cnc2c(N)ncnc21,inactive: -0.79,inactive: -0.644,inactive: -0.451
CS(=O)(=O)c1ccc(C(CC2CCCC2)C(=O)Nc2nccs2)cc1 (centres undefined),inactive: 0.106,inactive: -0.644,inactive: -0.521
Cc1cc(Nc2nc(N[C@@H](C)c3ncc(F)cn3)ncc2Cl)n[nH]1,inactive: -0.981,inactive: -0.642,inactive: 1.53
O=C(Nc1ccc2cn[nH]c2c1)c1cc2[nH]c(Nc3ccccc3C(F)(F)F)nc2cc1N1CCNCC1,inactive: 0.187,inactive: -1.48,inactive: -1.31
COc1ccccc1C(=O)N1C2CCCC1CC(=O)C2,inactive: -1.31,,inactive: -0.423
C[C@H](NP(=O)(OC[C@H]1O[C@@H](n2ccc(N)nc2=O)C(F)(F)[C@@H]1O)Oc1ccccc1)C(=O)OCc1ccccc1 (some centres undefined),inactive: -1.43,inactive: -1.35,inactive: -1.4
COc1cc2nc(N3CCCN(C(=O)N4CCOCC4)CC3)cc(N)c2c(-c2ccc(F)cc2)c1OC,inactive: 0.317,inactive: -1.57,inactive: 1.07
O=c1c2ccccc2ncn1-c1nnn[nH]1,inactive: 0.206,inactive: -1.68,inactive: 1.24
CC1CCC(CN)(CN)CC1,inactive: -0.0838,inactive: 1.21,inactive: -1.15
Cn1c(-c2ccccc2C(F)(F)F)nnc1C12CCC(c3nc(-c4ccc(F)cc4)no3)(CC1)CC2,inactive: -0.558,inactive: -1.4,inactive: 0.598
CC(C)[C@](C#N)(CCCN(C)CCc1ccccc1)c1ccccc1,inactive: -0.0342,inactive: -0.348,inactive: 0.00371
COc1ccc(CCNCCCNC(=O)c2ccc([N+](=O)[O-])cc2)cc1OC,inactive: -0.185,inactive: 0.324,inactive: -1.03
O=C(OCC(COC(=O)c1cccnc1)(COC(=O)c1cccnc1)COC(=O)c1cccnc1)c1cccnc1 [niceritrol],inactive: 0.645,inactive: -1.51,inactive: -0.433
CC(=O)OC/C=C(C)/C=C/C=C(C)/C=C/C1=C(C)CCCC1(C)C [Retinol acetate],,inactive: -0.523,
CC(=O)OC/C=C(C)/C=C/C=C(C)/C=C/C1=C(C)CCCC1(C)C [Vitamin A (acetate)],inactive: -0.808,,inactive: -1.23
Cn1nnc2ccc([C@H](c3ccc(Cl)cc3)n3cncn3)cc21,inactive: -0.492,inactive: -0.718,inactive: 1.97
CC(C)c1cc(C(C)C)c(-c2csc(N(CCN(C)C)Cc3cccnc3)n2)c(C(C)C)c1 [Foropafant],inactive: 0.228,inactive: -0.547,inactive: -0.577
COC(=O)[C@@H](N)CS,inactive: 0.208,inactive: -1.45,inactive: -1.31
